Results from the supplement of paper PMC10849652.
The list shows a part of the results.

Chains of the proteins cited; added tags and fusions are not shown. Lines headed by an entry give the natural chain unless they say otherwise; changes in a name come on top.
UniProt Q9NXK8: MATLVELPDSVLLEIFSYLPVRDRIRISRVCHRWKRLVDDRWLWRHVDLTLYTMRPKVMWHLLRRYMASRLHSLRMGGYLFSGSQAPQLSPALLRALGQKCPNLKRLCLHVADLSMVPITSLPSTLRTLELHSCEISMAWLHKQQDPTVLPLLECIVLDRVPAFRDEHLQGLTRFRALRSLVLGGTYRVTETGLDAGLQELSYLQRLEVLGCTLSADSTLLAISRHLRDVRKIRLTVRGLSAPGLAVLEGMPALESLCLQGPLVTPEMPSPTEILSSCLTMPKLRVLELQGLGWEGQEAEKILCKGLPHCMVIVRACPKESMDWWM
UniProt Q9UKT4: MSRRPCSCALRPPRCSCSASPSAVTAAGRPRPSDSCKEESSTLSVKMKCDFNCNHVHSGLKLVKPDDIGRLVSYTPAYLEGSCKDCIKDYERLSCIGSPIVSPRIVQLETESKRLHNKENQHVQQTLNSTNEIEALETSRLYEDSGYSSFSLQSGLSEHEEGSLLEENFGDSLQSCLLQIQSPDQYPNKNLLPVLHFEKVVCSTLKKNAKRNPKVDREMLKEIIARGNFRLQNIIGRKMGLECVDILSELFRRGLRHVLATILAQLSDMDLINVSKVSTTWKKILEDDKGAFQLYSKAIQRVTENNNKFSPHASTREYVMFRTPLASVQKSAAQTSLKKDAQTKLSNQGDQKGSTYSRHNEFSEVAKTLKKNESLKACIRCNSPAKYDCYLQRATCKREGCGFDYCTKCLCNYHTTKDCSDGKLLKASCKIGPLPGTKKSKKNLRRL
UniProt Q8NFG4: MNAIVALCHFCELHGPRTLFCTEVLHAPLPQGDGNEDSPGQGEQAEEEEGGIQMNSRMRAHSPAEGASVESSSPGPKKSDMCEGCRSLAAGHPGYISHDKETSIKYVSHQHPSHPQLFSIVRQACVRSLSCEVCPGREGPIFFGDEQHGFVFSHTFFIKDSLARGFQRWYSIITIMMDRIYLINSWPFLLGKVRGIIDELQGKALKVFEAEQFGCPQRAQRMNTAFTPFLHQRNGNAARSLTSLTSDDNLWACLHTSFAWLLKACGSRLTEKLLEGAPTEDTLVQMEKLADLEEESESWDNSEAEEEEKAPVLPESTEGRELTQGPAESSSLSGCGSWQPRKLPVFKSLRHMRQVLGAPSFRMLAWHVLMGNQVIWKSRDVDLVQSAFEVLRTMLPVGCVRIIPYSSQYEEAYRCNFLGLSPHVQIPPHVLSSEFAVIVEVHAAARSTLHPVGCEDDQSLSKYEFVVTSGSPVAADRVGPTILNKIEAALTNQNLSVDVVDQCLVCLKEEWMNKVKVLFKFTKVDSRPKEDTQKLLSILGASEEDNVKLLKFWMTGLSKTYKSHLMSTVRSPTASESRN
UniProt Q53R41: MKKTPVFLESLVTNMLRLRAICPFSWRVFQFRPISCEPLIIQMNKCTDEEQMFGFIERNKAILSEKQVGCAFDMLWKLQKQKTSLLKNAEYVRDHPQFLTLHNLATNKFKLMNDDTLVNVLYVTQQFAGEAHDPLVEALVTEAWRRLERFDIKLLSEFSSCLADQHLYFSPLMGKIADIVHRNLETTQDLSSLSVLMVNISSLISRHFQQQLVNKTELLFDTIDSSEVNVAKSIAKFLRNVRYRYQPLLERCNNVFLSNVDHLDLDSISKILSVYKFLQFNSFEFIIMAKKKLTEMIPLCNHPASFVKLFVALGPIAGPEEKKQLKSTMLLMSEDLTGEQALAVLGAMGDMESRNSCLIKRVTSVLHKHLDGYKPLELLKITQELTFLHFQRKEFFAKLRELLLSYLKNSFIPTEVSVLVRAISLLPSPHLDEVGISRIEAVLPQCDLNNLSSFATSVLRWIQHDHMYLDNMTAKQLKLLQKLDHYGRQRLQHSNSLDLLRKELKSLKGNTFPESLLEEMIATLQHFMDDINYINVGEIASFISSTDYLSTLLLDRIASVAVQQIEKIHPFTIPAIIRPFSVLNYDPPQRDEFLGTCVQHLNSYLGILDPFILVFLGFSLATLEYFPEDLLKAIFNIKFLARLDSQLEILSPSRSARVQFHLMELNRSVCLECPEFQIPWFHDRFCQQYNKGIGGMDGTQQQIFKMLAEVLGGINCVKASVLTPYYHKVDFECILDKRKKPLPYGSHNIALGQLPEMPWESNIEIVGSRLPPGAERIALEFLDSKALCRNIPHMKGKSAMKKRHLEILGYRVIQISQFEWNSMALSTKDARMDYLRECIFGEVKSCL
UniProt Q7L8L6: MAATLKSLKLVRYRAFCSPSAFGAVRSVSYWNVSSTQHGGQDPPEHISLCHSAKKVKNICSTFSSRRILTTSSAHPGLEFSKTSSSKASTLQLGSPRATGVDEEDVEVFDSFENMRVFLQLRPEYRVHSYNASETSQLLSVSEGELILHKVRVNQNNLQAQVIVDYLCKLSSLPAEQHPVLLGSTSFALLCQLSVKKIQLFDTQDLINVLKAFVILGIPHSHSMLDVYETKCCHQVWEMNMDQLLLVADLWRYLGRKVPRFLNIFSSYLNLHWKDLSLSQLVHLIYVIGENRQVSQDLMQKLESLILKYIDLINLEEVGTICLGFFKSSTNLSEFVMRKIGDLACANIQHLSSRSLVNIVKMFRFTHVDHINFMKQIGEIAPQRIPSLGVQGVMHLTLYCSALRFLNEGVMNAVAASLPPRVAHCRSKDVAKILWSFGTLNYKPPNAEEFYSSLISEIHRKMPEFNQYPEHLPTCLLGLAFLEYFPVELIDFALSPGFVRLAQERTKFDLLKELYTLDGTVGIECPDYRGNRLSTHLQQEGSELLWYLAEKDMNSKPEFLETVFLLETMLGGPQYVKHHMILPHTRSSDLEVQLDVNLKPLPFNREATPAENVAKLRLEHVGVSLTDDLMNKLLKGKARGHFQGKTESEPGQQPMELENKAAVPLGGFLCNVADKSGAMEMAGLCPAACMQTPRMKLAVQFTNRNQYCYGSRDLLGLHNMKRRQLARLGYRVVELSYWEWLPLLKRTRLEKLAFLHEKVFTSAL
UniProt Q14254: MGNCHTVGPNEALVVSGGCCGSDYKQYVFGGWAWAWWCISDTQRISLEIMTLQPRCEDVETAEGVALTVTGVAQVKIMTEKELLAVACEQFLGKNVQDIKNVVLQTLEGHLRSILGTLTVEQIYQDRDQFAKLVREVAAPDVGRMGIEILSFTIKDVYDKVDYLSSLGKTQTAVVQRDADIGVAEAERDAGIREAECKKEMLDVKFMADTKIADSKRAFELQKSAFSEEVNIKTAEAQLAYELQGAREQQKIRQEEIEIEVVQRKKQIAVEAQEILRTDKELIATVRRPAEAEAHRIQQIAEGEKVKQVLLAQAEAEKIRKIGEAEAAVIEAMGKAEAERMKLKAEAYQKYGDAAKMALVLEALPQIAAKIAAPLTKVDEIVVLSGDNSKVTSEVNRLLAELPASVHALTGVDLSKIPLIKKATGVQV
UniProt P49327, whole entry, looked up: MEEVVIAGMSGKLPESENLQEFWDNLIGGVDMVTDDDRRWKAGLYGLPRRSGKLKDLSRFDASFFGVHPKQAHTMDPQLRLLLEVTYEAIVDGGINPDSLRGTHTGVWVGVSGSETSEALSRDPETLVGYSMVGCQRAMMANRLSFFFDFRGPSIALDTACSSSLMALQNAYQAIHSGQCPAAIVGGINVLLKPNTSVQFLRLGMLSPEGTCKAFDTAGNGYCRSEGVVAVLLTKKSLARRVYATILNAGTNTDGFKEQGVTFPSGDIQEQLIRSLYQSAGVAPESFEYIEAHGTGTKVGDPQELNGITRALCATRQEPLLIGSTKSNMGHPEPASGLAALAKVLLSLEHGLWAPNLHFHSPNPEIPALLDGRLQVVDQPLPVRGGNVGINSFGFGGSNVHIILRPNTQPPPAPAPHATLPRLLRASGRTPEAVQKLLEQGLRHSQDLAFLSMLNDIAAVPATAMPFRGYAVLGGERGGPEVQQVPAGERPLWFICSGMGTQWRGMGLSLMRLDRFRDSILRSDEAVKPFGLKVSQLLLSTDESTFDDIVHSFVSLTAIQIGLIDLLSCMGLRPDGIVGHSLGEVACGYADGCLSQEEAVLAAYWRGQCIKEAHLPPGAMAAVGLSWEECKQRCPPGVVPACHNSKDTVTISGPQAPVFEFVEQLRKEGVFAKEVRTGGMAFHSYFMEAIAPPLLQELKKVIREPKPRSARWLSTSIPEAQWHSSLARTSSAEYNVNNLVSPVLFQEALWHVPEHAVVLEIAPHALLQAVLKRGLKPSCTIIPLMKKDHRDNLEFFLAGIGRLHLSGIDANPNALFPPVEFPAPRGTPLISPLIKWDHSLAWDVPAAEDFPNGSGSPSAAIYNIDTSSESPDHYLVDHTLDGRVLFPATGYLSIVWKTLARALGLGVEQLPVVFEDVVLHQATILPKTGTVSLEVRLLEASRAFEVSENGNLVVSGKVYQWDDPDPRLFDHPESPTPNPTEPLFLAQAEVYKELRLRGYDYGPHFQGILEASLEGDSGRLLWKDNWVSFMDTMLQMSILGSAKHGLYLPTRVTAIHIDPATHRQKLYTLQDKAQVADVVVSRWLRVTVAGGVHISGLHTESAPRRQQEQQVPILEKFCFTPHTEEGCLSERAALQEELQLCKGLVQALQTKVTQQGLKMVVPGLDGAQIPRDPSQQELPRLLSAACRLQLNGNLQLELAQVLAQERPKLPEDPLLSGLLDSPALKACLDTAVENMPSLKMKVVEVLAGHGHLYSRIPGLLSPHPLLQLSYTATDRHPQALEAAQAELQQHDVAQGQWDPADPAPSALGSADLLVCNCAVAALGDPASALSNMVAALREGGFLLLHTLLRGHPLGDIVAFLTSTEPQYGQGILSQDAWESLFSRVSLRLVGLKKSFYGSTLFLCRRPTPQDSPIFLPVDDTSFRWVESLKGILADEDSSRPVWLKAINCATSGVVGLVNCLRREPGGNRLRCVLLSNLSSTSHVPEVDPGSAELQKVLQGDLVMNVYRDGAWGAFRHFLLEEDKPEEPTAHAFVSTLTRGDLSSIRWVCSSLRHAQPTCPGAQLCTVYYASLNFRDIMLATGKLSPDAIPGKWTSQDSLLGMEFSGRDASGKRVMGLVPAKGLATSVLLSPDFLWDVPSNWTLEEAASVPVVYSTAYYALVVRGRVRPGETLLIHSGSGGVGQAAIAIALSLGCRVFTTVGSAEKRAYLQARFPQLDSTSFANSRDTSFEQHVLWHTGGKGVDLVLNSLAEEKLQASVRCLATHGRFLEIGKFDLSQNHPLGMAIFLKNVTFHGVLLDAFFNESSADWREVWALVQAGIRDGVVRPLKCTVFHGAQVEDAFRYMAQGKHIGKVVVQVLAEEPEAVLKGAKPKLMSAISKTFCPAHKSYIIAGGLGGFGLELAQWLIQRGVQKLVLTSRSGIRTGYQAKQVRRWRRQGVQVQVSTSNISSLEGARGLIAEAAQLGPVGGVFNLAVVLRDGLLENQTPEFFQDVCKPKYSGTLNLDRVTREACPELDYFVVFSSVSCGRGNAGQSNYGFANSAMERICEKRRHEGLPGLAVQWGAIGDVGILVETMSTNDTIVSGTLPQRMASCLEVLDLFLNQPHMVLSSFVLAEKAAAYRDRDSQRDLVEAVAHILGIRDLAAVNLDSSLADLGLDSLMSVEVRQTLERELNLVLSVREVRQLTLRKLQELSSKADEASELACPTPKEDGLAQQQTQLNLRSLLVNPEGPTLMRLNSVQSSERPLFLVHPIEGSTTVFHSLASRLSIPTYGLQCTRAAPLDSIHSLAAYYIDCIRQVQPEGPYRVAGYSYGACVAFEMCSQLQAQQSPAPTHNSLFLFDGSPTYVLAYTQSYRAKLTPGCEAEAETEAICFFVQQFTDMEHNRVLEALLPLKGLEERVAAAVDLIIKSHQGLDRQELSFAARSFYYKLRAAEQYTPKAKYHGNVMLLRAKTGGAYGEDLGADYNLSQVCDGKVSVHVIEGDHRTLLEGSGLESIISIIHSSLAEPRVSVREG
UniProt P07954: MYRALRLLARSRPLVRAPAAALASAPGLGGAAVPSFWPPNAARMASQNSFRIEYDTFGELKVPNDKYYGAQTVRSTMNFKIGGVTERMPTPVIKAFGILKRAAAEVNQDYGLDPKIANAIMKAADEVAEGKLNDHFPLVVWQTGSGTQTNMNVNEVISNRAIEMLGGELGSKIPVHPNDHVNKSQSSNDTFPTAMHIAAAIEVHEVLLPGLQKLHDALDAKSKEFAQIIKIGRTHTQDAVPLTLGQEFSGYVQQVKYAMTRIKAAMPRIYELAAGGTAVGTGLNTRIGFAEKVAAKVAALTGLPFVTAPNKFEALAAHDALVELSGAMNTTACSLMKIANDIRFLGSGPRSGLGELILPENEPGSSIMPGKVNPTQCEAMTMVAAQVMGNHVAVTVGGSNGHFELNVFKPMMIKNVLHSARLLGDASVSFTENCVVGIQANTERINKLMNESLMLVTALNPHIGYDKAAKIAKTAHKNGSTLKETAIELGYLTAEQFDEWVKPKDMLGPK
UniProt P62942, whole entry, looked up: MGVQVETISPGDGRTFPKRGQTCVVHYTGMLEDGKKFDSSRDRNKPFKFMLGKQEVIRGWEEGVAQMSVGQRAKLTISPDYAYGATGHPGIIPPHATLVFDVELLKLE

Tests used:
Test in all cases: log2 fold change, soluble protein after heating vs DMSO (PISA); higher = thermal stabilisation; K562 cells, 10 uM, 30 min; active = over 0.2 and 3.5 SD of the protein, either way, in both replicates (recomputed)
[1] = compound: CN1CCN(CCOc2cc(OC3CCOCC3)c3c(Nc4c(Cl)ccc5c4OCO5)ncnc3c2)CC1 [saracatinib]
Summary of the method: (§1)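 Thermal stability values are relative to control samples and come from duplicates. They are expressed as log2 fold changes. For measurement, K562 cells (2×10^6 cells/mL) received 10 μM compound for 30 min, and aliquots were heated for 3 min over 48°C-58°C, pooled, and extracted at 4°C in PBS with 0.5% NP-40. Soluble protein, the supernatant after 21,000xg for 90 min, was quantified by TMTpro 16plex LC-MS/MS with equalised channel sums.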

[2] = compound: CN1CCN(c2nc(C3=C(c4c[nH]c5ccccc45)C(=O)NC3=O)c3ccccc3n2)CC1 [sotrastaurin]
Summary of the method: as §1

[3] = compound: CN1CC[C@H](c2c(O)cc(O)c3c(=O)cc(-c4ccccc4Cl)oc23)[C@H](O)C1 [alvocidib]
Summary of the method: as §1

[4] = compound: CN1CCc2c(c3ccccc3n2Cc2ccc(C(=O)NO)cc2)C1 [Tubastatin A]
Summary of the method: as §1

[5] = compound: CNC(=O)C1=CC=CC=C1NC2=NC(=NC=C2Cl)NC3=C(C=C(C=C3)N4CCOCC4)OC
Summary of the method: as §1

[6] = compound: CNC(=O)c1ccc(Nc2ncc(C(F)(F)F)c(NCc3nccnc3N(C)S(C)(=O)=O)n2)cc1 [defactinib]
Summary of the method: as §1

[7] = compound: CNCc1ccc(-c2[nH]c3cc(F)cc4c3c2CCNC4=O)cc1 [rucaparib]
Summary of the method: as §1

[8] = compound: CNc1nc(-c2ccc3c(N)n[nH]c3c2)cc(N2C[C@@H](C(=O)NC3CCCCC3)CC[C@H]2C)n1
Summary of the method: as §1

[9] = compound: COC(=O)N[C@@H](C)CNc1nccc(-c2cn(C(C)C)nc2-c2cc(Cl)cc(NS(C)(=O)=O)c2F)n1 [encorafenib]
Summary of the method: as §1

[10] = compound: COC(=O)[C@H](CCSC)NC(=O)C1=C(C=C(C=C1)NC[C@H](CS)N)C2=CC=CC=C2
Summary of the method: as §1

Measured: log2 fold change

FKBPL (UniProt Q9UIM3)
inactive: [1] 0.003 | [2] -0.007 | [3] -0.03 | [4] 0.007 | [5] -0.008 | [6] 0.021 | [7] 0.012 | [8] -0.009 | [9] 0.009 | [10] 0.072

FAR1 (UniProt Q8WVX9)
inactive: [1] -0.022 | [2] 0.045 | [3] -0.041 | [4] 0.022 | [5] -0.024 | [6] -0.024 | [7] -0.07 | [8] -0.088 | [9] 0.016 | [10] -0.008

FIP1L1 (UniProt Q6UN15)
inactive: [1] 0.089 | [2] 0.006 | [3] 0.053 | [4] -0.021 | [5] -0.148 | [6] -0.053 | [7] 0.008 | [8] -0.108 | [9] 0.016 | [10] 0.024

FASTKD2 (UniProt Q9NYY8)
inactive: [1] -0.008 | [2] -0.002 | [3] -0.11 | [4] 0.037 | [5] -0.034 | [6] -0.027 | [7] -0.031 | [8] 0.007 | [9] 0.006 | [10] 0.009

FHL2 (UniProt Q14192)
inactive: [1] 0.053 | [2] 0.039 | [3] 0.045 | [4] -0.052 | [5] 0 | [6] -0.001 | [7] -0.033 | [8] -0.082 | [9] -0.01 | [10] 0.021

FARSB (UniProt Q9NSD9)
inactive: [1] -0.061 | [2] -0.025 | [3] -0.017 | [4] -0.008 | [5] 0.009 | [6] -0.039 | [7] 0.019 | [8] 0.031 | [9] 0.032 | [10] -0.029

FAU (UniProt P62861)
inactive: [1] -0.079 | [2] 0 | [3] 0.238 | [4] 0.087 | [5] 0.072 | [6] 0.204 | [7] 0.307 | [8] 0.129 | [9] 0.102 | [10] 0.058

FLVCR1 (UniProt Q9Y5Y0)
inactive: [1] 0.113 | [2] 0.019 | [3] 0.013 | [4] -0.018 | [5] -0.03 | [6] -0.072 | [7] 0.054 | [8] 0.013 | [9] -0.12 | [10] 0.067

FKBP15 (UniProt Q5T1M5)
inactive: [1] -0.024 | [2] -0.152 | [3] -0.058 | [4] 0.054 | [5] -0.111 | [6] -0.035 | [7] 0.018 | [8] 0.089 | [9] 0.045 | [10] -0.062

FERMT2 isoform 3 (UniProt Q96AC1)
inactive: [1] -0.032 | [2] 0.021 | [3] -0.027 | [4] 0.062 | [5] 0.119 | [8] 0.067

FBXL12 (UniProt Q9NXK8)
inactive: [1] 0.056 | [2] -0.022 | [3] -0.257 | [4] 0.102 | [5] 0.045 | [6] -0.093 | [7] 0.122 | [8] 0.051 | [9] -0.051 | [10] -0.036

FBXO5 (UniProt Q9UKT4)
inactive: [1] 0.099 | [2] -0.022 | [3] -0.063 | [4] 0.105 | [5] 0.011 | [6] -0.027 | [7] -0.044 | [8] -0.028 | [9] 0.013 | [10] 0.063

FLCN (UniProt Q8NFG4)
inactive: [1] -0.133 | [2] -0.032 | [3] -0.081 | [4] 0.074 | [5] -0.035 | [6] -0.022 | [8] 0.084 | [10] 0.081

Reprinted from the entries so far (7 entries):
FARSB (UniProt Q9NSD9)
inactive: [1] -0.061 | [2] -0.025 | [3] -0.017 | [4] -0.008 | [5] 0.009 | [6] -0.039 | [7] 0.019 | [8] 0.031 | [9] 0.032 | [10] -0.029

FAU (UniProt P62861)
inactive: [1] -0.079 | [2] 0 | [3] 0.238 | [4] 0.087 | [5] 0.072 | [6] 0.204 | [7] 0.307 | [8] 0.129 | [9] 0.102 | [10] 0.058

FLVCR1 (UniProt Q9Y5Y0)
inactive: [1] 0.113 | [2] 0.019 | [3] 0.013 | [4] -0.018 | [5] -0.03 | [6] -0.072 | [7] 0.054 | [8] 0.013 | [9] -0.12 | [10] 0.067

FKBP15 (UniProt Q5T1M5)
inactive: [1] -0.024 | [2] -0.152 | [3] -0.058 | [4] 0.054 | [5] -0.111 | [6] -0.035 | [7] 0.018 | [8] 0.089 | [9] 0.045 | [10] -0.062

FERMT2 isoform 3 (UniProt Q96AC1)
inactive: [1] -0.032 | [2] 0.021 | [3] -0.027 | [4] 0.062 | [5] 0.119 | [8] 0.067

FBXL12 (UniProt Q9NXK8)
inactive: [1] 0.056 | [2] -0.022 | [3] -0.257 | [4] 0.102 | [5] 0.045 | [6] -0.093 | [7] 0.122 | [8] 0.051 | [9] -0.051 | [10] -0.036

FBXO5 (UniProt Q9UKT4)
inactive: [1] 0.099 | [2] -0.022 | [3] -0.063 | [4] 0.105 | [5] 0.011 | [6] -0.027 | [7] -0.044 | [8] -0.028 | [9] 0.013 | [10] 0.063

More results

FBXO38 (UniProt Q6PIJ6)
inactive: [1] -0.053 | [2] -0.021 | [3] -0.154 | [4] 0.15 | [5] -0.058 | [6] -0.028 | [7] 0.021 | [8] 0.156 | [9] 0.091 | [10] -0.042

FASTKD1 (UniProt Q53R41)
inactive: [1] -0.118 | [2] -0.046 | [4] 0.037 | [5] 0.037 | [6] -0.22 | [7] -0.093 | [8] 0.112 | [9] 0.026 | [10] -0.02

FHL1 isoform 4 (UniProt Q13642)
inactive: [1] -0.185 | [2] 0.093 | [3] 0.033 | [4] 0.01 | [5] -0.023 | [6] 0.101 | [8] -0.181 | [10] 0.119

FASTKD5 (UniProt Q7L8L6)
inactive: [1] -0.03 | [2] -0.158 | [3] 0.155 | [4] 0.273 | [5] -0.153 | [6] -0.508 | [8] -0.068 | [10] -0.075

FHL3 (UniProt Q13643)
inactive: [1] 0.018 | [2] 0.071 | [3] 0.019 | [4] -0.047 | [5] 0.024 | [6] 0.016 | [7] 0 | [8] -0.077 | [9] -0.029 | [10] 0.024

FDX1 (UniProt P10109)
inactive: [1] 0.046 | [2] -0.074 | [3] -0.016 | [4] -0.025 | [5] -0.043 | [6] 0.053 | [7] 0.074 | [8] -0.033 | [9] -0.076 | [10] 0.032

FLOT2 (UniProt Q14254)
inactive: [1] -0.163 | [2] -0.084 | [3] 0.14 | [4] 0.125 | [5] -0.045 | [6] 0.106 | [7] 0.209 | [8] 0.073 | [9] 0.186 | [10] -0.095

FN3K (UniProt Q9H479)
inactive: [1] 0.007 | [2] 0.006 | [3] -0.005 | [4] -0.056 | [5] -0.057 | [6] -0.008 | [7] 0.021 | [8] -0.017 | [9] -0.018 | [10] 0.033

FASN (UniProt P49327)
inactive: [1] -0.002 | [2] -0.06 | [3] -0.062 | [4] -0.006 | [5] 0.037 | [6] -0.025 | [7] -0.023 | [8] 0 | [9] 0.037 | [10] -0.018

FAM3C (UniProt Q92520)
inactive: [1] 0.043 | [2] -0.108 | [3] -0.043 | [4] -0.073 | [5] -0.033 | [6] -0.037 | [7] -0.012 | [8] -0.078 | [9] 0.007 | [10] 0.007

FNBP1L (UniProt Q5T0N5)
inactive: [1] 0.091 | [2] -0.011 | [3] -0.009 | [4] 0.235 | [5] 0.022 | [6] -0.129 | [8] -0.009 | [10] 0.135

FH (UniProt P07954)
inactive: [1] -0.015 | [2] 0.01 | [3] -0.049 | [4] 0.004 | [5] 0.023 | [6] -0.022 | [7] -0.05 | [8] 0.005 | [9] -0.012 | [10] 0.007

FCHSD1 (UniProt Q86WN1)
inactive: [1] -0.058 | [2] -0.015 | [3] -0.187 | [5] 0.028 | [7] -0.322 | [8] 0.03 | [9] 0.074

FAM49B (UniProt Q9NUQ9)
inactive: [1] 0.023 | [2] 0.004 | [3] -0.07 | [4] -0.034 | [5] 0.005 | [6] -0.029 | [7] -0.033 | [8] -0.006 | [9] 0.009 | [10] -0.01

FAM50A (UniProt Q14320)
inactive: [1] 0.11 | [2] -0.119 | [4] 0.029 | [5] 0.056 | [6] -0.203 | [7] -0.027 | [8] 0.08 | [9] 0.055 | [10] -0.023

FKBP1A (UniProt P62942)
inactive: [1] -0.033 | [2] 0.044 | [3] -0.243 | [4] 0.087 | [5] -0.005 | [6] -0.057 | [7] 0.036 | [8] 0.049 | [9] -0.016 | [10] -0.113

FBXW2 (UniProt Q9UKT8)
inactive: [1] -0.281 | [2] 0.047 | [3] -0.067 | [4] 0.001 | [5] 0.021 | [6] -0.084 | [8] 0.111 | [10] 0.128

FBLL1 (UniProt A6NHQ2)
inactive: [1] -0.001 | [2] -0.039 | [3] 0.15 | [4] -0.001 | [5] -0.182 | [6] 0.261 | [7] 0.447 | [8] 0.021 | [9] 0.079 | [10] -0.13
